Not every detail of the peptide structures is certain; ends, links or a residue may be inferred.
Target: T1, hPTH1R (Homo sapiens, UniProt Q03431)
T1 construct: expressed in transfected cells; host or cells: COS-1 cells (ATCC), transient, DEAE-dextran
T1 sequence (Q03431 27-593): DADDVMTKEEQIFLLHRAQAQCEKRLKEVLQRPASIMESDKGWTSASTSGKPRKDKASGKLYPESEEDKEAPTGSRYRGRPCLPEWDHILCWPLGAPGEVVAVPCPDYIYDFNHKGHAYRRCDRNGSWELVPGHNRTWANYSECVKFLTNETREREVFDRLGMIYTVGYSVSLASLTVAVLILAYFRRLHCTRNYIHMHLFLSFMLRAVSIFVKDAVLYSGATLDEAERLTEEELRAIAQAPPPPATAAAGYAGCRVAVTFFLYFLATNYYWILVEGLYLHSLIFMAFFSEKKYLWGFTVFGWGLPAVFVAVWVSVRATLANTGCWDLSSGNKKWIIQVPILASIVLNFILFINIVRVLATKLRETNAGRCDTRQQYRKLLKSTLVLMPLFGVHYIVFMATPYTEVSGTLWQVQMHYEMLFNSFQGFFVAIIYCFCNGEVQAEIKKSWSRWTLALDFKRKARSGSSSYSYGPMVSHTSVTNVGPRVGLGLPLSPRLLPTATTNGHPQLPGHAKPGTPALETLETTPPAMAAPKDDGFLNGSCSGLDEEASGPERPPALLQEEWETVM
Test: cAMP accumulation dose-response assay in COS cells
Type: cell-based
Details: 30 min at 37° C.; basal 0.24 pmol per well

CC[C@H](C)[C@H](NC(=O)[C@H](CCC(=O)O)NC(=O)[C@H](CO)NC(=O)[C@@H](NC(=O)[C@@H](N)CO)C(C)C)C(=O)N[C@@H](CCC(N)=O)C(=O)N[C@@H](CC(C)C)C(=O)N[C@@H](CCSC)C(=O)N[C@@H](Cc1c[nH]cn1)C(=O)N[C@@H](CC(N)=O)C(=O)N[C@@H](CC(C)C)C(=O)NCC(=O)N[C@@H](CCCCN)C(=O)N[C@@H](Cc1c[nH]cn1)C(=O)N[C@@H](CC(C)C)C(=O)N[C@@H](CC(N)=O)C(=O)N[C@@H](CO)C(=O)N[C@@H](CCSC)C(=O)N[C@@H](CCC(=O)O)C(=O)N[C@@H](CCCNC(=N)N)C(=O)N[C@H](C(=O)N[C@@H](CCC(=O)O)C(=O)N[C@@H](Cc1c[nH]c2ccccc12)C(=O)N[C@@H](CC(C)C)C(=O)N[C@@H](CCCNC(=N)N)C(=O)N[C@@H](CCCCN)C(=O)N[C@@H](CCCCN)C(=O)N[C@@H](CC(C)C)C(=O)N[C@@H](CCC(N)=O)C(=O)N[C@@H](CC(=O)O)C(=O)N[C@H](C(=O)N[C@@H](Cc1c[nH]cn1)C(=O)N[C@@H](CC(N)=O)C(=O)N[C@@H](Cc1ccccc1)C(N)=O)C(C)C)C(C)C [hPTH(1-34), reference compound]
maximal cAMP induced: 6.1 pmol per well
